The text below walks through data of PubChem BioAssay AID1508600 (Functional Genomics Laboratory (NCATS/FGL), 2020).

Screen size: about 53,000 sequences; about 3,700 (7%) were called active.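 Rule for the calls: active = gene knockdowns whose robust z-score for IL-1 alpha signal is at least 2 or at most -2, so actives lie on both sides; inactive = the rest.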 The list shows a part of the results.

A short description of the test: Components of the Cytosolic LPS Sensing Pathway: Gene Identification via Genome-wide siRNA Screen.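 Note: robust z of the log signal after scaling to non-targeting control siRNA wells of the plate.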 As to conditions: RAW264.7 macrophages, IL-1a HTRF, actives lie on both sides, screened at 100 nM (by protocol), cells primed 5 h with Pam3CSK4 first. In short, it runs like this: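 IL-1a HTRF of supernatants after 24 hour LipidA transfection of Pam3CSK4-primed (5 hours) RAW264.7 cells, 48h post-siRNA transfection (100 nM). Scores: percent of plate negative-control median, then log-based robust z-score.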
For orientation: In TR-FRET formats the signal depends on donor and acceptor labels being close together.
On to GGAUGACCGUGCUAGAAAUTT against Klra2, for which the z-score was inactive: -0.657.

On to CGUGGUUCCCAUCAGAAAGTT against Gtsf1l, for which the z-score is inactive: 0.733.

As for GCCUGCCAACCAGCGUAAUTT against Pard6a, the z-score is inactive: 1.24.

As to GGAGAUGGUGCCAGAGAAGTT against Cfc1, the z-score was inactive: 1.06.

GGAAUGAGGGUAAUGAAUATT against Plin3: the z-score is inactive: -1.74.

CCUGGAACUUGUCUUUUUUTT against Olfr1388: the z-score is inactive: 1.4.

On to GGGACACAUUUAAAAAAACTT against Dennd2a, for which the z-score was inactive: -0.874.

In the case of CCAUCAUUGUUCUUGCAAGTT against Olfr1387, the z-score is inactive: -0.0905.

For the sequence GGACCUCUUCUCUGUCUUUTT against Ubl7, the z-score is inactive: 0.137.

Regarding GCUAUUGGAUGAGCGAUUGTT against Crlf3, the z-score was inactive: 0.422.

For CGGUUAUCUAGACUUAAAATT against Zfp760, the z-score was inactive: 0.697.

Take GGCUUCUUUUGCUACACCUTT against Olfr729: the z-score is inactive: -0.0147.

As for GCAUGCAUGGUACAAUUUUTT against Olfr1166, the z-score is inactive: 1.45.

As for GGUAGUGGACAGUUUUGACTT against Mrpl55, the z-score is inactive: 0.675.

Consider GGCCUUUAACAUCCGCCUATT against Ddb1, for which the z-score is inactive: -1.49.

Regarding CCGAAUAUCGAGUUCCCAATT against Ceacam20, the z-score is inactive: -0.0196.

For GGUUCUUUUCCUGUUUUACTT against Olfr434, the z-score was inactive: 0.161.

As to GGAGAGUUGCCUCAAACAUTT against Ubac1, the z-score was inactive: 0.577.

For the sequence GGUGGCAUGUCAUUGCUUCTT against Igf2, the z-score was inactive: -0.423.

Take GCAUUGUCAGUCCUACGUGTT against Stac3: the z-score is inactive: 1.09.

For GCCGAUGGAUUCCUCUCAUTT against Rhot1, the z-score was inactive: 0.316.

Turning to GGUGAAAUAGCUAAAUCAUTT against Usp15, the z-score is inactive: 0.254.

As to GGGAAAACUACGCAAGAGCTT against Tra2a, the z-score was inactive: 1.18.

On to GGAUGUUUCGAAUUAAGAGTT against Uqcrb, for which the z-score is inactive: 0.0758.

In the case of GGAAGGAUCAUUCUGUGAATT against Ly6h, the z-score was inactive: -0.311.

GGAACAUGACAGAGAUUUUTT against Adgrb1: the z-score was inactive: 0.376.

Turning to GGCUUUUCUUACAAAGCAATT against Yipf2, the z-score is inactive: -0.956.

For the sequence GGAGUUUCAACAAAGAAGCTT against Dock3, the z-score is inactive: 0.267.

As to GGAGCUGGACCUGCUGUUATT against Atp6v0e2, the z-score was inactive: 1.54.

For GGACAUGUGAAGAUAAACGTT against Mug1, the z-score was inactive: -0.137.

Consider CCGGAAAAAGGAUAAGACATT against Rgs6, for which the z-score was inactive: 0.785.

GGUCACAAUGAAGGUCAAGTT against Plxdc1: the z-score is inactive: -0.66.

In the case of GGCUUCAAAGGCAAAGUUCTT against Fbf1, the z-score was inactive: -1.5.

For the sequence GGAAUUUGAAUCACGUUUGTT against Hprt, the z-score was inactive: 1.72.

Turning to GGUGAUGAAACAAAGACAATT against Znrd1as, the z-score is inactive: -0.266.

As to GGUGCCCAUAAUAGCCAUCTT against Polr2c, the z-score is inactive: -1.02.

For the sequence GGAAGAAUUCACAAAGAUGTT against Snx6, the z-score was inactive: -0.913.

Regarding GGAACUGAAAAACUCAACUTT against Evi2a, the z-score was active: -3.13.

Take GGAUUUAGUUCAGAUUUGUTT against Ubp1: the z-score is inactive: 0.833.

GCUCUCACCCAUGUGACGATT against Micall2: the z-score was inactive: 0.607.

With CGACAAAUAUGAGAGACUCTT against Tsnax, the z-score is inactive: 0.406.

As to GGUGGACCUGCACUUUACCTT against Fam135b, the z-score is inactive: 0.67.

In the case of GCAAUCAUGCCCAAGAAAUTT against Foxn3, the z-score was inactive: -0.63.

Regarding GGUGGUGGGUCCAAUUUUUTT against Jpt1, the z-score is inactive: 0.411.

For the sequence GGAGAAAAUGAUAACAUGCTT against Mto1, the z-score is inactive: -0.606.

As for GGAACAUGGUGUAAAUUCUTT against Serpinb9e, the z-score was inactive: 1.66.

Take UCGCCUACGGACUGUUCGGTT against Kcnk12: the z-score is inactive: -0.132.

For GCACUGCCCAACAACCAUUTT against Scamp4, the z-score was inactive: -1.34.

With CGAACAGAUAUUAUGUCAUTT against Tmem176b, the z-score was inactive: 0.548.

Turning to GGGUCUCAUACCUAAGGACTT against Wnt3a, the z-score was inactive: -0.228.

Turning to GGUGGUGACUAAGAAAUUCTT against Prps1, the z-score was inactive: 0.353.

In the case of GGACAUAAUCAAAGACAUCTT against Ddc, the z-score is inactive: 1.15.

As to GGAAUUCUUUGGACUGAAUTT against Ccr5, the z-score is inactive: -0.618.

GCAAAUCCCUCACUAAUUUTT against Kctd20: the z-score was inactive: -0.655.

As to GGUGUGAUUGAAGAAGCGGTT against Gpr37, the z-score was inactive: -0.463.

Regarding GGGUUUUGUGUAAAAGGUUTT against Olfr584, the z-score is inactive: -1.17.

For GGAGAAUCCCAGCAACUCUTT against Sall2, the z-score is inactive: 1.39.

For the sequence CGCUGCAUUAAAGACUAAATT against Kcnj10, the z-score was inactive: 0.414.

Turning to GCAAGCAGAGCUGAUUCUUTT against Slc25a24, the z-score is inactive: 0.638.

Take GGUAAAGCAAGAGAGUAUUTT against Hccs: the z-score is inactive: -0.629.

For the sequence GGACUGCUUCUACAAGGUUTT against Uck1, the z-score was inactive: 0.566.

On to GGGCCUCAAAAACCUCAUGTT against Prelp, for which the z-score was inactive: -1.84.

With GGUACUGUUGCGCUUUGCUTT against Ciao3, the z-score is inactive: 1.47.

Regarding GCUGCUUUACUUAAGAGUUTT against Srf, the z-score was inactive: 0.625.

On to GCGUGGUAGAUGCUAUUAATT against Gfod2, for which the z-score was inactive: -0.479.

Turning to CCUCUCAGAUGGUAUAUAATT against Olfr520, the z-score is active: -2.14.

With GGAUGCCGUCAACAUUGUATT against Psmd4, the z-score was inactive: 0.526.

For the sequence CCUCAAACUAACCACUCACTT against Olfr1045, the z-score was inactive: -1.13.

GGUCUCUUCGAUGUCCUCATT against Htr6: the z-score is inactive: -1.59.

For the sequence CUCCACUCCUUUGGAACUUTT against Gm5128, the z-score was inactive: -0.454.

As to GGAGAUCUCACCGACAUUGTT against Cpt1c, the z-score is inactive: -1.22.

For “GGAAGGAAAUGUGUGAAAUTT against 4930555G01Rik”, the z-score is inactive: -0.194.

GGCUCUUCUCUCGUCCUUGTT against Nif3l1: the z-score was inactive: 0.213.

With GGUCUGCACUGAGAAGAUUTT against Hmg20b, the z-score was inactive: -1.78.

Turning to CGGAGACAUUUUCCCUAGCTT against Ccng1, the z-score was inactive: -0.621.

In the case of GUGGCGAUAUCCAGAGAUGTT against Vmn1r18, the z-score was inactive: 0.261.

As for GGCUUUGGAGAUAAAUUUATT against Nup153, the z-score was inactive: -1.88.

For the sequence GGUGUGUUUGGAUAUAGUUTT against Prkdc, the z-score was inactive: -0.39.

For the sequence GCAUGCGUCAAUUUCUAAATT against Cdon, the z-score is inactive: 0.299.

For GCAGGCUAGGAACAGUUAATT against Gpr61, the z-score is inactive: -0.101.

On to GGCUGACUUCGUUUUCAUGTT against Derl3, for which the z-score is active: -2.01.

As for GCUUCUAUACUGAUUAUGATT against Aldh6a1, the z-score is inactive: -0.676.

For the sequence GGAACUGGGAGACCUAUAATT against Angptl2, the z-score is active: -2.01.

Turning to GCAAUCAACUGUCUGUUUUTT against Cyp2b9, the z-score is inactive: 0.296.

As for GGGAACAGGCUUGUUGUCUTT against Treml1, the z-score was inactive: 0.613.

For GGGACUGGAUCCUUGAUAUTT against Ebi3, the z-score is inactive: 0.677.

For CCAGUUCUAAGCAAAUUGATT against Cyp4v3, the z-score was inactive: -0.26.

For GGCUUAUUCUCUGGUAUUUTT against Mpv17l, the z-score is inactive: -1.68.

On to GGCCAGAGUAGCAACUGUATT against AY074887, for which the z-score was inactive: -0.235.

In the case of GGCUGAAUCGGCAUUUCCATT against Klhdc3, the z-score was inactive: -0.184.

As for GGAGCUAGAGGUAGACCGUTT against D11Wsu47e, the z-score was inactive: 0.289.

On to GGUUUUCUGAAAUUGAGGATT against Uqcc1, for which the z-score is inactive: -0.501.

For the sequence GGAGGCAGUCCUGUGUACATT against Paqr4, the z-score is inactive: 0.855.

Turning to GCCACCUCAAAACAUAUCATT against Il12rb2, the z-score was inactive: -0.995.

As to GGCAUUGGAAGAUGCACAGTT against Scp2, the z-score was inactive: 0.431.

On to GGCAAAAUUGGAAAGAGAATT against Gopc, for which the z-score is inactive: -0.969.

In the case of GGUACCGGCUGGAAAAUGATT against Inpp5b, the z-score is inactive: 1.15.

In the case of GGACAGUUUGAUGAUGCCGTT against Coprs, the z-score is active: -2.87.

As for GGAAUCAACUGAUACUUAATT against Aldh1l2, the z-score was inactive: 0.755.

CGCCAGCUCUGAAUCCUUUTT against Olfr693: the z-score is inactive: 0.601.

In the case of GGAUGCUAAAAAUGCGGGATT against Cyp2d34, the z-score was inactive: 1.04.

For the sequence GGAGGUUGAGGCAUUUAAATT against Ogfr, the z-score is inactive: 0.658.

Regarding “GGGCUAGGAGAAACUCCUCTT against 0610010K14Rik”, the z-score was inactive: -1.59.

Consider GUCCUACGUGCUUAGCUACTT against Endog, for which the z-score is inactive: 0.324.

Regarding GGCUAUGAACUCUUAUUUCTT against Ctnnd1, the z-score was inactive: 0.785.

Take GGUGGAAACAGUUGUUAUGTT against Jag2: the z-score was inactive: 1.12.

Turning to GCAUUUCCUAUAAUCGUUGTT against Olfr360, the z-score is inactive: 0.371.
